Results from the supplement of paper PMC10849652.
The list shows a part of the results.

Amino acid sequences for entries named in this document (tags omitted). A change or cut given only in a name is not applied to a line headed by its entry.
UniProt P62068, whole entry, looked up: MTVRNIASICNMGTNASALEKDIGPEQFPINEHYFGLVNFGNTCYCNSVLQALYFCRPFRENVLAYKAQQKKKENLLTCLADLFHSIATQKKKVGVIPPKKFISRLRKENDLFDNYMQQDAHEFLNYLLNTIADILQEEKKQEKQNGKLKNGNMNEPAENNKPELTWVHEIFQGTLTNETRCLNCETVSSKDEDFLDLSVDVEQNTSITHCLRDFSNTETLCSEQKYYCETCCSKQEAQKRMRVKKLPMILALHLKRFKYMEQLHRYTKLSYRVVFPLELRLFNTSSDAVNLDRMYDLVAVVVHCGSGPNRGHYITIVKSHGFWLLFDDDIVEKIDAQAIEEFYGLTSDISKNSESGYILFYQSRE
UniProt Q16831: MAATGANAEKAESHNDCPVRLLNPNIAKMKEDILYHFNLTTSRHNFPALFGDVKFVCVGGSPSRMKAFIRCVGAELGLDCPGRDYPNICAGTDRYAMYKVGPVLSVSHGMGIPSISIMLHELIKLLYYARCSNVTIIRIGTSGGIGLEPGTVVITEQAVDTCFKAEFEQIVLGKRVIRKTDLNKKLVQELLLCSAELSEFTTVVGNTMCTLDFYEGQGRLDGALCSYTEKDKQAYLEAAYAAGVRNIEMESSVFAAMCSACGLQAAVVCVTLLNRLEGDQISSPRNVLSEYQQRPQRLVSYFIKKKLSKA
UniProt O75691: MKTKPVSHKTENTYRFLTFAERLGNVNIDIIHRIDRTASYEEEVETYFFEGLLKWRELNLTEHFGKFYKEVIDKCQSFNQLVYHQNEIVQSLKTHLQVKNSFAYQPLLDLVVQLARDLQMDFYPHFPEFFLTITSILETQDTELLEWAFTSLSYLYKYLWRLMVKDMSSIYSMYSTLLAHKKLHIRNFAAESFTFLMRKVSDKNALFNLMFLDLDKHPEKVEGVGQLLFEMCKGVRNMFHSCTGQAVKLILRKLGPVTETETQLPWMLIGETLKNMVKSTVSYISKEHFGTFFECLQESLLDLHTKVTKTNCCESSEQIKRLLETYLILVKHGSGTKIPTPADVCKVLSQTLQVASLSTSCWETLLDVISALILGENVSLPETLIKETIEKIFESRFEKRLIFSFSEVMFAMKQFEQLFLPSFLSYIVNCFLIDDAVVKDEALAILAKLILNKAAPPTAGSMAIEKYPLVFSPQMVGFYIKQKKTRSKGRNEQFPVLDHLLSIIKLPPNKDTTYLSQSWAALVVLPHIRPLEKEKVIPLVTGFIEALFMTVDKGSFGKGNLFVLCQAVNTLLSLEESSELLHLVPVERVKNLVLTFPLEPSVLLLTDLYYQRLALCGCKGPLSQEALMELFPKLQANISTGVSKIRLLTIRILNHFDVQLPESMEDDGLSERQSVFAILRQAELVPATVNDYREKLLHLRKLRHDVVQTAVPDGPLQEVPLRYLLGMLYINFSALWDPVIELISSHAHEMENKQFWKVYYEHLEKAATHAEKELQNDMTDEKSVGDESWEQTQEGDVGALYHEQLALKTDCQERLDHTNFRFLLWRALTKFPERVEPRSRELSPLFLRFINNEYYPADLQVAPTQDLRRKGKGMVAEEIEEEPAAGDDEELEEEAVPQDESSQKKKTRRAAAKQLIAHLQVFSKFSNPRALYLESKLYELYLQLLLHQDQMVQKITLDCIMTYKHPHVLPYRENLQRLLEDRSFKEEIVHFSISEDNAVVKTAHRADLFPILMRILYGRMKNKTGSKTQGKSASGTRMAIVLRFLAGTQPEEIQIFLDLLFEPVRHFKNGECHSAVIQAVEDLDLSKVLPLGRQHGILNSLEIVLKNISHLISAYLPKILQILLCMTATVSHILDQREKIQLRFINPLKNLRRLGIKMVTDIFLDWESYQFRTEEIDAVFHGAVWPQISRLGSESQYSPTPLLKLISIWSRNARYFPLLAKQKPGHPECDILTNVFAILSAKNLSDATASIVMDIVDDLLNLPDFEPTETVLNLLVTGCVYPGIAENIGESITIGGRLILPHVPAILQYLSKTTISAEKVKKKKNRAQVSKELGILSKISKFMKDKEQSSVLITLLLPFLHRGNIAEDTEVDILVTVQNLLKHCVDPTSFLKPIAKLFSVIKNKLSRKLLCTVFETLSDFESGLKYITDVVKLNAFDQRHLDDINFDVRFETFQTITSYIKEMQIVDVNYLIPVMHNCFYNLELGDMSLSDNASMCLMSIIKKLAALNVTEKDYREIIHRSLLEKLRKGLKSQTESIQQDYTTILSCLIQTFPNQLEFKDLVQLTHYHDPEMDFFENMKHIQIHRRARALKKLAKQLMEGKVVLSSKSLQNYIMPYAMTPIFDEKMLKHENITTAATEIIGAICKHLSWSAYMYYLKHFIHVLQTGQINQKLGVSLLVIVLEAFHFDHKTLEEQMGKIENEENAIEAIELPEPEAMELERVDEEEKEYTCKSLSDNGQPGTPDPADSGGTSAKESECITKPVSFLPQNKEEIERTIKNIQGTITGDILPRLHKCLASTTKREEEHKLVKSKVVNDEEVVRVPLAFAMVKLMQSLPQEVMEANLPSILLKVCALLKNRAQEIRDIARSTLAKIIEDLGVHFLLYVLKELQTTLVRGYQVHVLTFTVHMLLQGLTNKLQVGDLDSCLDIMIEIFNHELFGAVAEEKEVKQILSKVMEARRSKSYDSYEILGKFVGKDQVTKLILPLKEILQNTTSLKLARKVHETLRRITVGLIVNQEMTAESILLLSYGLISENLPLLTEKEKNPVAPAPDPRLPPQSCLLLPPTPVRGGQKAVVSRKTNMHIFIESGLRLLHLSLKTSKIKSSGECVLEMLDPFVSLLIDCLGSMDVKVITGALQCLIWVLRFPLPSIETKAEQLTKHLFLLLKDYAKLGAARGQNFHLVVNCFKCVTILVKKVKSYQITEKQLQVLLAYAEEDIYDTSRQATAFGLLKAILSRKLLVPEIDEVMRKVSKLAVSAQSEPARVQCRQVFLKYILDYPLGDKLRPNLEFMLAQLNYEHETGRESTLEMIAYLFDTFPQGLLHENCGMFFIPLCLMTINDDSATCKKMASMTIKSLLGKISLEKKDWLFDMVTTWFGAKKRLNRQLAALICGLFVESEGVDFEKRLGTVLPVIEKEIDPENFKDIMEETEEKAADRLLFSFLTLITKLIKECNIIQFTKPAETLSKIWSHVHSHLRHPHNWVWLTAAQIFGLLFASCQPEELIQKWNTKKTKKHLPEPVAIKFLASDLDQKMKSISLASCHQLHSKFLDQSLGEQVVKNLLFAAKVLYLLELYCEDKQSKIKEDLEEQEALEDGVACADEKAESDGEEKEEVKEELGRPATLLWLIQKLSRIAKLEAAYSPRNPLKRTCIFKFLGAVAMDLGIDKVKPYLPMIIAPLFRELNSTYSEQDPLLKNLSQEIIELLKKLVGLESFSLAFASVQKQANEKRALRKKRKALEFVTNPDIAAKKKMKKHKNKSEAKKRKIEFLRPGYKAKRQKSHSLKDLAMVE
UniProt O14957: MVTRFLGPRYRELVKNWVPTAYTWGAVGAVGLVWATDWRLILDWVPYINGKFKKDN
UniProt P09936: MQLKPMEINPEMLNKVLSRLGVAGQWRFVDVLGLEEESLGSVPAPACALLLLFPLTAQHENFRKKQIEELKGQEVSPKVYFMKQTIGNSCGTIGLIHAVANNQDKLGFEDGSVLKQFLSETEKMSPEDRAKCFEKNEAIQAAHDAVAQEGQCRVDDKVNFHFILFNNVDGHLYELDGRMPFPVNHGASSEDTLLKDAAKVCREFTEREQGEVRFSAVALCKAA
UniProt Q8IZJ1, whole entry, looked up: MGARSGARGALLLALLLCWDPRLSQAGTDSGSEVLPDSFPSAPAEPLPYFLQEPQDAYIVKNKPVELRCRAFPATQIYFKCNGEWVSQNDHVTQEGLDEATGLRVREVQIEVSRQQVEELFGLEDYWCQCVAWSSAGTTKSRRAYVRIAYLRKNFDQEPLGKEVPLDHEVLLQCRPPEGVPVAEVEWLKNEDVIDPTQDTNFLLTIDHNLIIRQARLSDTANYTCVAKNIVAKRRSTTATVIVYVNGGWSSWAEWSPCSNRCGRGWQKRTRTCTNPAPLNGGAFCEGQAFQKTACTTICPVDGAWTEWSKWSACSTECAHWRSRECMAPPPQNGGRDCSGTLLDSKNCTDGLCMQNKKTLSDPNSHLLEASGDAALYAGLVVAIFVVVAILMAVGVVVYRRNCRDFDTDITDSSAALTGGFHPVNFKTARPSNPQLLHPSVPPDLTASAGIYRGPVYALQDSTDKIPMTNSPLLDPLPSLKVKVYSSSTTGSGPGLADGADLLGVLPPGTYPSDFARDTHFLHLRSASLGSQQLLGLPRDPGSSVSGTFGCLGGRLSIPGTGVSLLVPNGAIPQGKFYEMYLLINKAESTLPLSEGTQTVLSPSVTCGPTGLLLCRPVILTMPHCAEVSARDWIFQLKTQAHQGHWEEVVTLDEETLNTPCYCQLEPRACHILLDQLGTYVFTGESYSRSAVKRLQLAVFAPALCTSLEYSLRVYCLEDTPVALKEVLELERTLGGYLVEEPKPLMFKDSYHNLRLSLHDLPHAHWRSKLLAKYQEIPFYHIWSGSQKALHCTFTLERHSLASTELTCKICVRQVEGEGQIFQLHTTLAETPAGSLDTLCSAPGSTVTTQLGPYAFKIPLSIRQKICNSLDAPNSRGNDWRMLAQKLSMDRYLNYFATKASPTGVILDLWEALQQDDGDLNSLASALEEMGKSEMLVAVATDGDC
UniProt Q14146: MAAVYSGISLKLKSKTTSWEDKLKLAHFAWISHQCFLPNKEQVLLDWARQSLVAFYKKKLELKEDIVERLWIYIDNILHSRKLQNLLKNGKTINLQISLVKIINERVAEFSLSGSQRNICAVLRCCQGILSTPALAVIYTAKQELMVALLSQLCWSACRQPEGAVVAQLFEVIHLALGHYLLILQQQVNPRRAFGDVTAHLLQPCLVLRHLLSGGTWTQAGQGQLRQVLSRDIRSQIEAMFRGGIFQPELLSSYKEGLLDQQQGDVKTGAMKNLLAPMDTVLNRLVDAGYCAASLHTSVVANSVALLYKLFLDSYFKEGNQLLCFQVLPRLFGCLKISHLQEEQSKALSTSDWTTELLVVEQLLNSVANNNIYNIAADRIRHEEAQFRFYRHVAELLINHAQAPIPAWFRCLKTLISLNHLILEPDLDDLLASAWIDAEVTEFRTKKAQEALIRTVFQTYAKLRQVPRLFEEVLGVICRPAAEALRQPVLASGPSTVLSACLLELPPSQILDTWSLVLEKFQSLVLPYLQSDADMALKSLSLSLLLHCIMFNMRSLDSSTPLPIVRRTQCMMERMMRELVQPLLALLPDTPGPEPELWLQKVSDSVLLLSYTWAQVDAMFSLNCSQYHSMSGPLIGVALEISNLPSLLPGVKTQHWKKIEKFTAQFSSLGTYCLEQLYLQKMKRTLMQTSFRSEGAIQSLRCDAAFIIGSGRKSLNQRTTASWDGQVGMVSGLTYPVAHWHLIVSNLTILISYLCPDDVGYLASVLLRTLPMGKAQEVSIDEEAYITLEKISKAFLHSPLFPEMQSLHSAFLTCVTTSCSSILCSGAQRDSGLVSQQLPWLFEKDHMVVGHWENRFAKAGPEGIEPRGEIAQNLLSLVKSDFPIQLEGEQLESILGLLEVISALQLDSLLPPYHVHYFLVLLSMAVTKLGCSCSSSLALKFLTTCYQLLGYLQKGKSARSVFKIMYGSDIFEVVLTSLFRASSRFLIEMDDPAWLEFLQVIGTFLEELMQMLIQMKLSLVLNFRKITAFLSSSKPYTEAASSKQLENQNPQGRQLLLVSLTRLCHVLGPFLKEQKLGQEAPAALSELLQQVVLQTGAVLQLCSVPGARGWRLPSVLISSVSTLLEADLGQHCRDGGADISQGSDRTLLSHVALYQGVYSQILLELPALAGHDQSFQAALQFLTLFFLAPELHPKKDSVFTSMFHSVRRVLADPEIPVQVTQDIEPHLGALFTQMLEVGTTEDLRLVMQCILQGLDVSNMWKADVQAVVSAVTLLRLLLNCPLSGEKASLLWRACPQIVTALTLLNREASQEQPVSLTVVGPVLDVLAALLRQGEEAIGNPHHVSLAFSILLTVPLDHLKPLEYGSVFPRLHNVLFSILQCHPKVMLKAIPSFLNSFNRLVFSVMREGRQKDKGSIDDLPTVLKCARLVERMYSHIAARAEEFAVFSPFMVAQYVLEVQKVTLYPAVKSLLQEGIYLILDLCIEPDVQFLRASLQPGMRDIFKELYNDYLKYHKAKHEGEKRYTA
UniProt Q15836, whole entry, looked up: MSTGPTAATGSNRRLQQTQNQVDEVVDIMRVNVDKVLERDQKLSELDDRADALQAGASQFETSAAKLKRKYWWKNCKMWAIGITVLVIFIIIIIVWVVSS
UniProt Q9BRU9: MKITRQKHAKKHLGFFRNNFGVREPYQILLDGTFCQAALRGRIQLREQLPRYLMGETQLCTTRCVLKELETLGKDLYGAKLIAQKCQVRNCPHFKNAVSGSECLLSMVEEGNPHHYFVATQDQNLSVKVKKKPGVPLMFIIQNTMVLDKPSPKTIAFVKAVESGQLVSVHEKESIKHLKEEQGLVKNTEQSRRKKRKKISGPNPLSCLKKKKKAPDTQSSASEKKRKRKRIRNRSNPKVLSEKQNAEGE

Assays:
Assay in all cases: log2 fold change, soluble protein after heating vs DMSO (PISA); higher = thermal stabilisation; K562 cells, 10 uM, 30 min; active = over 0.2 and 3.5 SD of the protein, either way, in both replicates (recomputed)
epoxomicin = compound: CC[C@H](C)[C@@H](C(=O)N[C@@H]([C@@H](C)O)C(=O)N[C@@H](CC(C)C)C(=O)[C@]1(CO1)C)NC(=O)[C@H]([C@@H](C)CC)N(C)C(=O)C [epoxomicin]
In short: (§1)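 K562 cells at 2×10^6 cells/mL were given 10 μM compound for 30 min. Aliquots then went through 3 min of heating across 48°C-58°C, were pooled, and were extracted in PBS with 0.5% NP-40 at 4°C, and the supernatant after 21,000xg for 90 min was quantified by TMTpro 16plex LC-MS/MS with channel sums equalised. Thermal stability relative to control samples, from duplicates, is given as log2 fold change.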

[1] = compound: CCn1c(C(=O)N(C2CC2)C2CC2)cc2c3c(ncn3C)c(Nc3cc(C)n(C)n3)nc21
In short: as §1

[2] = compound: CCn1cc(-c2ccnc3[nH]c(-c4cccc(CN(C)C)c4)cc23)c(-c2ccc(NC(=O)N(C)C)cc2)n1
In short: as §1

[3] = compound: CN(C)CC(=O)Nc1ccc2[nH]c(=O)c3ccccc3c2c1
In short: as §1

[4] = compound: CN1CCC(CNc2ccc3ncc(-c4cccc(OC(F)(F)F)c4)n3n2)CC1
In short: as §1

[5] = compound: CC[C@@H]1C(=O)N(C)c2cnc(Nc3ccc(C(=O)NC4CCN(C)CC4)cc3OC)nc2N1C1CCCC1
In short: as §1

[6] = compound: CN1C2=C(C3=C1C(=O)N(N=C3)CC4=CC(=CC=C4)N)SC(=C2)S(=O)C
In short: as §1

[7] = compound: CC[C@H](C)N1C=C(C2=C(C=C(C=C21)C3=CN=C(C=C3)N4CCNCC4)C(=O)NCC5=C(C=C(NC5=O)C)C)C
In short: as §1

rosiglitazone = compound: CN(CCOC1=CC=C(C=C1)C[C@H]2C(=O)NC(=O)S2)C3=CC=CC=N3 (racemic) [rosiglitazone]
In short: as §1

volasertib = compound: CC[C@@H]1C(=O)N(C)c2cnc(Nc3ccc(C(=O)N[C@H]4CC[C@H](N5CCN(CC6CC6)CC5)CC4)cc3OC)nc2N1C(C)C [volasertib]
In short: as §1

Measured: log2 fold change

VCPIP1 (UniProt Q96JH7)
inactive: epoxomicin -0.019 | [1] -0.065 | [2] 0.121 | [3] 0.115 | [4] -0.602

USP12 (UniProt O75317)
inactive: [5] 0.115 | [2] 0.158 | [3] -0.026 | [6] 0.066 | [4] 0.017

UBN2 (UniProt Q6ZU65)
inactive: [7] 0.108 | [3] -0.147

UNG (UniProt P13051)
inactive: epoxomicin -0.024 | [1] 0.049 | [2] -0.106 | [3] 0 | rosiglitazone 0.14 | [6] -0.079 | [4] -0.002

UBTF (UniProt P17480)
inactive: [1] -0.129 | [2] 0.045 | rosiglitazone -0.065 | [4] 0.058

UNC13A (UniProt Q9UPW8)
inactive: [1] 0.029 | rosiglitazone -0.044

USP46 (UniProt P62068)
inactive: volasertib 0.086 | epoxomicin -0.062 | [1] 0.092 | [3] -0.092

UPP1 (UniProt Q16831)
inactive: volasertib -0.06

USP11 (UniProt P51784)
inactive: volasertib -0.006 | epoxomicin -0.009 | [2] -0.09 | [6] 0.269 | [4] 0.023

UTP20 (UniProt O75691)
inactive: volasertib 0.093 | epoxomicin -0.355

UQCR11 (UniProt O14957)
inactive: [7] -0.089 | [1] 0.059 | [2] -0.09 | [4] 0.26

UCHL1 (UniProt P09936)
inactive: [2] -0.466 | [4] -0.007

Looked up one by one from the list above, two records:
UCHL1 (UniProt P09936)
inactive: [2] -0.466 | [4] -0.007

USP11 (UniProt P51784)
inactive: volasertib -0.006 | epoxomicin -0.009 | [2] -0.09 | [6] 0.269 | [4] 0.023

Going on with the list:

USP54 (UniProt Q70EL1)
inactive: volasertib -0.217 | [1] 0.077 | [2] 0.072 | [3] 0.03 | rosiglitazone 0.036 | [6] 0.141 | [4] 0.051

USP1 (UniProt O94782)
inactive: [5] 0.019 | [7] 0.063 | epoxomicin 0.055 | [1] -0.059 | [3] -0.097 | rosiglitazone 0.041

USP27X (UniProt A6NNY8)
inactive: epoxomicin 0.021 | [6] 0.018

UBP1 (UniProt Q9NZI7)
inactive: [7] -0.166 | epoxomicin -0.293 | [3] -0.127 | rosiglitazone 0.025 | [6] 0.441

UBQLN1 isoform 2 (UniProt Q9UMX0)
inactive: [1] -0.102 | [6] 0.126

UPF3A (UniProt Q9H1J1)
inactive: [5] 0.249 | epoxomicin 0 | [1] -0.065

ULBP1 (UniProt Q9BZM6)
inactive: volasertib -0.178 | epoxomicin 0.152 | [3] -0.019 | [6] 0.007

USP16 (UniProt Q9Y5T5)
inactive: [7] 0.253 | epoxomicin 0.031 | [1] -0.102 | [2] 0.021 | [3] -0.027 | rosiglitazone -0.06 | [6] 0.3 | [4] -0.015

USF1 (UniProt P22415)
inactive: volasertib -0.062 | [7] 0.029 | epoxomicin 0.153 | [1] -0.212 | [2] 0.187 | [3] -0.318 | rosiglitazone -0.131 | [4] 0.115

URGCP (UniProt Q8TCY9)
inactive: volasertib -0.128 | [7] -0.263 | epoxomicin 0.07 | [1] -0.08 | [2] -0.007 | [3] 0.022 | rosiglitazone -0.063 | [6] 0.012 | [4] -0.107

USP33 (UniProt Q8TEY7)
inactive: [1] -0.038 | [3] -0.093 | [6] 0.217

UTP14C (UniProt Q5TAP6)
inactive: epoxomicin -0.002 | [1] 0.015

USP4 (UniProt Q13107)
inactive: [6] 0.264

UNC5B (UniProt Q8IZJ1)
inactive: epoxomicin 0.27 | [3] 0.438 | [6] -0.092

UFSP1 (UniProt Q6NVU6)
inactive: [1] -0.073

UGP2 (UniProt C9JWG0)
inactive: [7] -0.224 | rosiglitazone 0.157

USP32 (UniProt Q8NFA0)
inactive: volasertib -0.402 | [7] 0.127 | epoxomicin -0.158 | [1] -0.205 | [2] -0.104 | [6] 0.196 | [4] -0.068

UQCC3 (UniProt Q6UW78)
inactive: [7] -0.067 | epoxomicin -0.063 | [2] 0.021 | rosiglitazone 0.163 | [4] 0.232

UTP18 (UniProt Q9Y5J1)
inactive: [5] 0.202 | [7] -0.021 | epoxomicin -0.045 | [1] 0.121 | [2] 0.066 | rosiglitazone -0.352 | [4] 0.13

URM1 isoform 2 (UniProt Q9BTM9)
inactive: [5] 0.058 | [7] 0.153 | [1] -0.12 | [2] -0.011 | [3] -0.193 | rosiglitazone 0.053 | [6] -0.265 | [4] 0.082

URB2 (UniProt Q14146)
inactive: [7] -0.074 | [1] 0.223 | rosiglitazone 0.068

VAV1 (UniProt P15498)
inactive: epoxomicin 0.063 | [1] -0.053 | [2] -0.005 | [3] 0.059 | [4] -0.112

USB1 (UniProt Q9BQ65)
inactive: volasertib -0.076 | [1] 0.015 | [2] -0.037 | [3] -0.018 | [4] 0.056

2 neighbouring records out of the list so far:
URM1 isoform 2 (UniProt Q9BTM9)
inactive: [5] 0.058 | [7] 0.153 | [1] -0.12 | [2] -0.011 | [3] -0.193 | rosiglitazone 0.053 | [6] -0.265 | [4] 0.082

URB2 (UniProt Q14146)
inactive: [7] -0.074 | [1] 0.223 | rosiglitazone 0.068

The list goes on:

VAMP3 (UniProt Q15836)
inactive: [7] -0.051 | epoxomicin 0.101 | [1] 0 | rosiglitazone -0.019

VASN (UniProt Q6EMK4)
inactive: epoxomicin -0.071 | [1] 0.229 | [3] -0.129 | rosiglitazone -0.034

UHRF1 isoform 2 (UniProt Q96T88)
inactive: [1] -0.189

UBR1 (UniProt Q8IWV7)
inactive: [7] 0.164 | epoxomicin -0.071 | [1] -0.224 | [2] -0.096 | rosiglitazone 0.03 | [6] 0.213 | [4] -0.521

UTP23 (UniProt Q9BRU9)
inactive: [7] 0.157 | [6] 0.255
